From PubChem BioAssay (NCATS)
Inconclusive results, whose numbers are uncertain, are shown with a selection of clear calls. Potencies of inconclusive entries are doubtful fits and often do not repeat. Active and inactive are the calls of the source. Calls follow the shape of the dose curve; as a rule, active = well fitted cell-killing curve with a large enough effect; inconclusive = small, poorly fitted or top-dose-only effect, or effect the other way; inactive = no such curve, though single readings can be large or run the other way.

Experiment: Quantitative High-Throughput drug screen in 47 multiple myeloma cell lines against the NCATS MIPE library collection: OPM1_PLB cell viability assay (AID 1918989); also: nearly all actives have a fitted effect of over 40% in size
Settings: CellTiter-Glo, 48 h; series mostly up to 45.8 µM
Text: PI: Beverly A. Mock Ph.D.
Laboratory of Cancer Biology and Genetics,
Center for Cancer Research, National Cancer Institute,
National Institute of Health, Bethesda, Maryland
Drug resistance and disease progression are common in multiple myeloma (MM) patients, underscoring the need for new therapeutic combinations. […] We hypothesized that effective combinations would reduce MYC expression and enhance p16 activity. […] These preclinical data identify potentially useful drug combinations for evaluation in drug-resistant MM and reveal potential mechanisms of combined drug sensitivity.
Described herein is the primary MIPE qHTS used to cherrypick compounds. Validated compounds were then further tested for potential synergistic activiy.
[1] Peat TJ, Gaikwad SM, Dubois W, Gyabaah-Kessie N, Zhang S, Gorjifard S, Phyo Z, Andres M, Hughitt VK, Simpson RM, Miller MA, Girvin AT, Taylor A, Williams D, D'Antonio N, Zhang Y, Rajagopalan A, Flietner E, Wilson K, Zhang X, Shinn P, Klumpp-Thomas C, McKnight C, Itkin Z, Chen L, Kazandijian D, Zhang J, Michalowski AM, Simmons JK, Keats J, Thomas CJ, Mock BA. Drug combinations identified by high-throughput screening promote cell cycle transition and upregulate Smad pathways in myeloma. Cancer Lett. 2023 Aug 1;568:216284. doi: 10.1016/j.canlet.2023.216284. Epub 2023 Jun 24. PMID: 37356470; PMCID: PMC10408729.
SEQUENCE No. (e.g., 1, 2, 3, etc.); […] (e.g., Cells, Incubation, Reagent, etc.); VALUE and DESCRIPTION.
1; Cells; 5 uL; white, solid bottom 1536-well Greiner assay plate.
2; Compounds; 23 nL; Kalypsis pin tool (Wako USA) equipped with a 1536-well pin head to transfer to the assay plates.
3; Incubation; 48 hours; 37C incubation.
4; Reagent;5uL; CellTiter Glo (Promega).
5; Detector; 425V; Luminescence; Viewlux PerkinElmer.
NOTES (numbers refer to Sequence numbers above)
1. The cell-based screening methods employed in this study were like those previously published. Briefly, the corresponding myeloma cell lines were screened in 1,536-well plates with 500 cells, 5-uL per well for inhibition of cell viability (assessed by measuring ATP levels with CellTiterGlo).
2. NCATS MIPE 4.0 library of approved and investigational drugs were added using the Kalypsis pin tool. Wells treated with DMSO only for 100% viability and media only for 0% viability were used as controls.
3. The assay plates were covered and incubated for 48 hours in a 37C, 5% CO2 incubator with controlled humidity.
4. After 48 hours, CellTilter-GloTM luminescent substrate mix (Promega) reagent was added to the assay plate and plates we incubated for 5 min at room temperature.
5. Signal was measured as median relative luminescence units on a ViewLux (PerkinElmer) multiplate reader.
[1] Heske CM, Davis MI, Baumgart JT, Wilson K, Gormally MV, Chen L, Zhang X, Ceribelli M, Duveau DY, Guha R, Ferrer M, Arnaldez FI, Ji J, Tran HL, Zhang Y, Mendoza A, Helman LJ, Thomas CJ. Matrix Screen Identifies Synergistic Combination of PARP Inhibitors and Nicotinamide Phosphoribosyltransferase (NAMPT) Inhibitors in Ewing Sarcoma. Clin Cancer Res. 2017 Dec 1;23(23):7301-7311. doi: 10.1158/1078-0432.CCR-17-1121. Epub 2017 Sep 12. PMID: 28899971; PMCID: PMC6636827.
Potency is read from the fitted curve at half-maximal effect.

Q: With `CC(C)c1ccc2c(c1)c(SC(C)(C)C)c(CC(C)(C)C(=O)O)n2Cc1ccc(Cl)cc1` as the molecule, how does the Potency read?
A: inactive

Q: With `O=C(NCc1ccccc1)c1csc(Nc2ccncn2)n1` as the molecule, how does the Potency read?
A: active: 13.2 µM

Q: With `CC(C(=O)O)c1cccc(C(=O)c2ccccc2)c1` (stereo not given) as the molecule, how does the Potency read?
A: inconclusive: 26.4 µM [cytotoxic, single point]

Q: For `Cc1ccc(NC(=O)c2ccc(CN3CCN(C)CC3)cc2)cc1Nc1nccc(-c2cccnc2)n1`, which Potency is on record?
A: active: 23.5 µM

Q: Which Potency does the source give for `Clc1ccc(C(Cn2ccnc2)OCc2ccc(Sc3ccccc3)cc2)c(Cl)c1` (stereo not given) here?
A: inconclusive: 26.4 µM [cytotoxic, single point]

Q: With `C[C@H](NC(=O)c1sccc1OCc1ccc(Cl)cc1)c1ccccc1` as the molecule, how does the Potency read?
A: inconclusive: 20.9 µM [cytotoxic, partial curve]

Q: Which Potency does the source give for `CNC1[C@H](O)C(O[C@@H]2C(O)C(O[C@H]3O[C@H]([C@@H](C)NC)CC[C@H]3N)[C@@H](N)C[C@H]2N)OC[C@]1(C)O` (stereo not given in full) here?
A: inconclusive: 0.0026 µM [cytotoxic, full curve, poor fit]

Q: With `O=C1C(Cl)=C(NCCN2CCOCC2)C(=O)c2ncccc21` as the molecule, how does the Potency read?
A: active: 7.43 µM

Q: For `O=c1cc(CN2CCOCC2)occ1OCCCCCSc1ccnc2cc(C(F)(F)F)ccc12`, which Potency is on record?
A: inconclusive: 7.43 µM [cytotoxic, partial curve]

Q: For `CCCNS(=O)(=O)Nc1ncnc(OCCOc2ncc(Br)cn2)c1-c1ccc(Br)cc1`, which Potency is on record?
A: inactive

Q: For `CC(C)(C(=O)NCC(F)(F)C(F)(F)F)C(=O)N[C@@H]1C(=O)Nc2ccccc2-c2ccccc21`, which Potency is on record?
A: inconclusive: 37.2 µM [cytotoxic, single point]

Q: With `O=C(Nc1ccccc1)Nc1ccc(-c2ccc(C(=O)[C@H]3CCC[C@H]3C(=O)O)cc2)cc1` as the molecule, how does the Potency read?
A: inactive

Q: For `CS(=O)(=O)N(Cc1ccco1)CC(O)Cn1c2ccccc2c2ccccc21` (stereo not given), which Potency is on record?
A: inconclusive: 23.5 µM [cytotoxic, partial curve, poor fit]

Q: For `CC(C=CC1=C(C)CCCC1(C)C)=CC=CC(C)=CC(=O)O`, which Potency is on record?
A: inconclusive: 33.2 µM [cytotoxic, single point]

Q: For `Cc1oncc1C(=O)Nc1ccc(C(F)(F)F)cc1`, which Potency is on record?
A: inconclusive: 18.7 µM [cytotoxic, partial curve, poor fit]

Q: For `CCCCC(CC)COC(=O)C(C#N)=C(c1ccccc1)c1ccccc1` (stereo not given), which Potency is on record?
A: inactive

Q: With `COC(=O)C1=CO[C@@H](O)[C@@H]2C(CO)=CC[C@@H]12` as the molecule, how does the Potency read?
A: inconclusive: 37.2 µM [cytotoxic, single point]

Q: For `CN1CC(=O)N2C(Cc3c([nH]c4ccccc34)[C@H]2c2ccc3c(c2)OCO3)C1=O` (stereo not given in full), which Potency is on record?
A: inactive

Q: With `O=C(O)c1cc(O)c2c(c1)C(=O)c1cccc(O)c1C2=O` as the molecule, how does the Potency read?
A: inactive

Q: For `CC1=C(C(=O)O)N2C(=O)[C@@H](NC(=O)[C@H](N)C3=CCC=CC3)[C@H]2SC1`, which Potency is on record?
A: inactive

Q: For `CC[C@]1(O)C[C@@H]2CN(CCc3c([nH]c4ccccc34)[C@@](C(=O)OC)(c3cc4c(cc3OC)N(C=O)[C@@H]3C45CCN4CC=C[C@](CC)([C@H]45)[C@@H](OC(C)=O)[C@]3(O)C(=O)OC)C2)C1` (stereo not given in full), which Potency is on record?
A: inconclusive: 18.7 µM [cytotoxic, partial curve]

Q: Which Potency does the source give for `Cc1cc(OCCCc2c(C(=O)O)n(Cc3cccnc3)c3c(-c4c(COc5ccc(N6CCN([S+](C)(=O)[O-])CC6)cc5)nn(C)c4C)cccc23)cc(C)c1Cl` here?
A: inconclusive: 18.7 µM [cytotoxic, partial curve]

Q: Which Potency does the source give for `COc1ccnc(CS(=O)c2nc3ccc(OC(F)F)cc3[nH]2)c1OC` (stereo not given) here?
A: inconclusive: 0.296 µM [rising, full curve]

Q: For `Cc1cc(O)c2c(c1)C(=O)c1cc(O)cc(O)c1C2=O`, which Potency is on record?
A: inconclusive: 18.7 µM [cytotoxic, partial curve, poor fit]

Q: With `CCCS(=O)c1ccc2nc(NC(=O)OC)[nH]c2c1` (stereo not given) as the molecule, how does the Potency read?
A: inconclusive: 20.9 µM [cytotoxic, single point]

Q: Which Potency does the source give for `CCCCCNC(=O)N1CCC(CN(Cc2ccc(Cl)cc2)Cc2ccc([N+](=O)[O-])s2)C1` (stereo not given) here?
A: inconclusive: 37.2 µM [cytotoxic, partial curve, poor fit]

Q: For `O=C(N[C@@H](c1ccccc1)[C@@H]1CCCCN1)c1cccc(C(F)(F)F)c1Cl`, which Potency is on record?
A: inconclusive: 10.5 µM [cytotoxic, partial curve, poor fit]

Q: For `O=C(O)C=Cc1ccc(O)c(O)c1`, which Potency is on record?
A: active: 16.6 µM

Q: For `O=C(NCC1CCCCN1)c1cc(OCC(F)(F)F)ccc1OCC(F)(F)F` (stereo not given), which Potency is on record?
A: active: 9.35 µM

Q: Which Potency does the source give for `Nc1ccc(-c2ccc3ncc4ccc(=O)n(-c5cccc(C(F)(F)F)c5)c4c3c2)cn1` here?
A: inconclusive: 0.0019 µM [cytotoxic, full curve]

Q: Which Potency does the source give for `NC(CO)C(=O)NNCc1ccc(O)c(O)c1O` (stereo not given) here?
A: inactive

Q: Which Potency does the source give for `C[N+]1(C)[C@@H]2C[C@@H](OC(=O)C(O)(c3cccs3)c3cccs3)C[C@H]1[C@@H]1O[C@@H]12` here?
A: inactive

Q: Which Potency does the source give for `O=C(NOCC1CC1)c1ccc(F)c(F)c1Nc1ccc(I)cc1Cl` here?
A: active: 18.7 µM

Q: With `O=C(CCc1ccc(O)cc1)c1c(O)cc(O)cc1O[C@@H]1O[C@H](CO)[C@H](O)[C@H](O)[C@H]1O` as the molecule, how does the Potency read?
A: inconclusive: 0.0132 µM [rising, full curve, poor fit]

Q: With `Cc1ccc(C)c(OCCCC(C)(C)C(=O)O)c1` as the molecule, how does the Potency read?
A: inconclusive: 37.2 µM [cytotoxic, single point]

Q: For `COc1cc2c(cc1OC)CN(CCc1ccc(NC(=O)c3cc(OC)c(OC)cc3NC(=O)c3cnc4ccccc4c3)cc1)CC2`, which Potency is on record?
A: active: 14.8 µM

Q: For `CC(C)C[C@@H](C(=O)N[C@H](C(=O)OC1CCCC1)c1ccccc1)[C@H](O)C(=O)NO`, which Potency is on record?
A: inconclusive: 37.2 µM [cytotoxic, single point]

Q: With `N=c1ccn2c(n1)O[C@H]1[C@@H](O)[C@@H](CO)O[C@H]12` as the molecule, how does the Potency read?
A: inconclusive: 0.0264 µM [rising, full curve]

Q: Which Potency does the source give for `O=C(NNC(=O)c1ccc(CNS(=O)(=O)c2ccc(F)c(Cl)c2)cc1)c1ccccc1` here?
A: inconclusive: 18.7 µM [cytotoxic, partial curve, poor fit]

Q: For `Cc1cc2cc3c(C)cc(=O)oc3c(C)c2o1`, which Potency is on record?
A: inconclusive: 37.2 µM [cytotoxic, single point]
